The values are deposited in ChEMBL (CHEMBL3988442, “University of Dundee, Small-Polar-MMV Screening Library” (2021)).

Mtb growth Cornell: 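Whole-cell assay for inhibitors of Mycobacterium tuberculosis growth, labelled Cornell in the record; the read-out is not stated. The concentration is filed as 10 mM, unlikely as a test dose, so the dose is not known. Higher means stronger inhibition (inferred from two other growth screens of the library). Of about 53,000 compounds tested this way, about 900 (1.7%) reached 50% or more in at least one test.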
Mtb heat-shock: 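Assay on Mycobacterium tuberculosis, filed only as a heat shock assay from Cornell; the read-out is not stated. The concentration is filed as 10 mM, unlikely as a test dose, so the dose is not known. The record gives no direction; compounds that gave an IC50 in retests scored well above the rest, so higher reads as stronger inhibition. Size under these conditions: about 69,000 compounds, about 930 of them at 50% or above in at least one test.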

The filed quantity is “Percent Effect” (%).
The controls that fix the scale are not given in the record; negative values are as filed.
Compounds were drawn at random from those tested, without regard to their results.
A dash means the value is not listed here; it may have been measured.

| Compound | Mtb growth Cornell | Mtb heat-shock |
|---|---|---|
| `FC1(F)CCNCC12CCN(c1cccnc1)C2.O=C(O)C(F)(F)F.O=C(O)C(F)(F)F` (stereo not drawn) | -6.86 | -28.57 |
| `COCC(=O)N1CC[C@@H](N2CCOCC2)[C@@H]1Cc1ccccc1` | 12.69 | -4.118 |
| `Cn1cc(-c2nc(CN3CCCCC3Cn3cncn3)cs2)cn1` (stereo not drawn) | - | -24.7 |
| `CC(C)OCc1ncn2c1CN(Cc1cnn(C)c1)CCC2.O=C(O)C(F)(F)F` | 15.92 | -25.91 |
| `Cc1nnc(NC(=O)N2CCCCC2CCO)s1` (stereo not drawn) | -6.475 | 0.3374 |
| `Cc1ccc(OCc2cccc(C(=O)N(C)CCC#N)c2)cn1` | 5.832 | -5.74 |
| `CNC(=O)C(NC(=O)c1ccn(C)c(=O)c1)c1ccccc1` (stereo not drawn) | -56.16 | 1.778 |
| `CC(C)C(C)NC(=O)Nc1ccc(F)c(C(N)=O)c1` (stereo not drawn) | - | 2.848 |
| `Cc1nc(CC(C)C)sc1C(=O)N1CCC1` | - | 19.1 |
| `CCN1CCN(C)C(=O)C12CCN(Cc1ccsc1)CC2.O=C(O)C(F)(F)F` | - | -5.485 |
| `O=C(NCCCn1nc2ccccn2c1=O)Nc1ccccc1Cl` | - | -6.497 |
| `Cc1nc(COc2ccc(OC3CCCCNC3=O)cc2)oc1C` (stereo not drawn) | - | 9.533 |
| `Fc1cccc(CNCC2Cn3nncc3CO2)c1` (stereo not drawn) | 22.16 | -0.368 |
| `CCc1nc(CN2CCN(C(=O)c3cncnc3CC)CC2)cs1` | - | 8.953 |
| `CSCC[C@H](NC(=O)N1CCC(Cc2ccccc2)CC1)C(=O)O` | 3.415 | -7.045 |
| `Cc1nnc(NC(=O)NCc2cc(F)cc(F)c2)s1` | 19.92 | -5.785 |
| `COCCCNC(=O)Cn1c(C)cc(=O)n2nc(-c3cccs3)nc12` | 0.3206 | 14.25 |
| `COc1ccccc1OCc1cc(C(=O)NC[C@@H]2CCCN2)n[nH]1` | 19.52 | 4.128 |
| `Cc1noc(C)c1CN(C)CC(c1cccs1)N1CCOCC1` (stereo not drawn) | - | -2.361 |
| `Cc1noc(C)c1C(=O)NCCN1CCOCC1` | 24.08 | 16.06 |
| `Cc1cc(NC(=O)NCCCSc2nncn2C)no1` | 10.32 | 3.345 |
| `Cc1cc(N2CCCN(c3ccnc(C)c3)CC2)ccn1` | - | -5.649 |
| `Cc1nc(N(C)C2CCCCC2)ncc1C(C)NC(=O)c1cscn1` (stereo not drawn) | 2.103 | -25.57 |
| `O=C(c1cnc(-c2cccs2)s1)N1CCCC(n2cccn2)C1` (stereo not drawn) | 30.33 | 33.4 |
| `CC(=O)NC1CCCN(C(=O)Nc2cccnc2-n2cccn2)C1` (stereo not drawn) | -9.86 | -16.72 |
| `O=C(CC1CC1)NCc1cn2c(n1)CN(Cc1cccc(F)c1)CC2.O=C(O)C(F)(F)F` | 19.02 | -6.282 |
| `O=C(O)CC(O)(CC(=O)O)C(=O)O.[H][C@@]12CCCN1C[C@H](CCSC)N(Cc1cnn(CC)c1)C2` | -54.59 | -18.86 |
| `Clc1ccc2cccnc2c1CN1CCCC1Cn1cncn1` (stereo not drawn) | 43.88 | 52.22 |
| `CC(NC(=O)Nc1cccnc1N1CCCC1)c1ccncc1` (stereo not drawn) | - | 1.555 |
| `Cc1cccnc1CN1CCC2(CC(Nc3ccncn3)C2)C1` (stereo not drawn) | -5.956 | 1.866 |
| `Cc1cccc2sc(NC(=O)CN3CCCC(O)(CO)C3)nc12` (stereo not drawn) | -0.1977 | -14.79 |
| `Cc1cc(C)c2[nH]c(C)c(CC(=O)N(C)CCN(C)C)c2c1.O=C(O)CC(O)(CC(=O)O)C(=O)O` | 48.33 | -5.156 |
| `CCc1ccccc1OCC(=O)N1CCOCC1c1ncon1` (stereo not drawn) | - | -16.88 |
| `CC(=O)c1ccc(N2CCN(C(=O)NC(C)c3ccc(C)o3)CC2)cc1` (stereo not drawn) | 26.16 | -15.1 |
| `Cn1nc2c(cc1=O)CN(Cc1nc(-c3ccccn3)no1)CC2` | - | -11.97 |
| `O=C1NCCCc2[nH]c(Cc3cccc(Cl)c3)nc21` | -7.355 | 2.952 |
| `Cc1cc(C)c2[nH]c(C(=O)NCCN3CCCC3=O)c(C)c2c1` | - | -12.47 |
| `OC(CN1CCC(c2ccn[nH]2)CC1)c1ccccc1F` (stereo not drawn) | 11.88 | -8.761 |
| `O=C(Cc1ccc2c(c1)CCO2)Nc1cccnc1-n1cncn1` | -26.81 | -5.692 |
| `O=C(CCNc1ncccn1)NCc1csc(Br)c1` | -36 | 2.477 |
| `COCCOc1cccc(CNCC2CN(C)CCO2)c1` (stereo not drawn) | 11.68 | -13.66 |
| `Cc1nn(C)c(C)c1C1COCCN1C(=O)c1cc(F)ccc1F` (stereo not drawn) | - | -1.13 |
| `Cc1ccc(CN(CCCN(C)C)Cc2cnc(N(C)C)nc2)o1.O=C(O)CC(O)(CC(=O)O)C(=O)O` | -2.664 | -5.016 |
| `CCN1CCCCC1C(=O)N1CCC(OC2CCCC2)CC1` (stereo not drawn) | 24.42 | 1.265 |
| `CCc1cnc(NCc2nc(CSC)no2)nc1` | -16.14 | -34.78 |
| `CS(=O)(=O)c1ccc(C(O)CN2CCC(c3ccn[nH]3)CC2)cc1` (stereo not drawn) | -30.41 | 19.91 |
| `[H][C@@]12C[C@H](C(=O)N3CCCCO3)CN(C(=O)c3ccncc3)[C@]1([H])CCO2` | 27.02 | 9.903 |
| `O=C(Cc1ccccc1Cl)Nc1ccn(CCN2CCOCC2)n1` | -24.12 | -8.91 |
| `NC1(C(=O)NCC2CCCN(Cc3ccccc3F)C2)CCCC1` (stereo not drawn) | 38.64 | -25.03 |
| `CC(O)CN1CCC(CNCc2cccc(C(=O)N(C)C)c2)CC1` (stereo not drawn) | - | -7.222 |
| `CC(C(=O)N1CCn2cncc2C1)N1CCCC1` (stereo not drawn) | - | 0.3269 |
| `c1ccc(-c2cnn3cc(CN4CCC5(CCO5)CC4)cnc23)cc1` | 5.567 | -5.873 |
| `Cn1cc(C2=NOC(C(=O)NC3(c4cccc(F)c4)CCCC3)C2)cn1` (stereo not drawn) | -24.87 | -6.847 |
| `Cc1cnc2c(S(=O)(=O)NCC3CCN(C4CC4)C3)cccc2c1` (stereo not drawn) | 23.1 | -5.393 |
| `CNC(=O)c1cccc(CN2CCN(C3=NCC(C)(C)S3)CC2)c1` | 31.49 | -4.625 |
| `CN(Cc1ccco1)Cc1ccccc1CNC(=O)c1cnc[nH]1` | 21.91 | -5.624 |
| `O=C(O)C(F)(F)F.O=C(O)C(F)(F)F.[H][C@@]12COC[C@]1(C(=O)NCCc1cccs1)CN(Cc1ccccn1)C2` | -61.58 | -16.91 |
| `CCS(=O)(=O)N1CC(=O)N(CCCc2ccccc2)CC(O)C1` (stereo not drawn) | -3.719 | -6.774 |
| `O=C(O)C(F)(F)F.[H][C@@]12COC[C@]1([H])[C@@H](OCC(=O)N(C)C)CN2Cc1ccsc1` | 7.417 | 37.89 |
| `CCn1cc(S(=O)(=O)NC(=O)CCc2c[nH]c3ccccc23)cn1` | 53.27 | -3.088 |
| `[H][C@@]12COC[C@]1(COc1cccnc1)CN(C(=O)Cc1cccs1)C2` | 28.1 | 2.372 |
| `CCC(CO)N(Cc1cccnc1)C(=O)c1ccoc1C` (stereo not drawn) | -26.48 | -11.64 |
| `CCOC1COC2(CCN(c3ncc(C)cn3)CC2)C1` (stereo not drawn) | 2.6 | 24.09 |
| `Cc1cnn(C2CCCN(C(=O)CCc3nccs3)C2)c1` (stereo not drawn) | -16.86 | 4.255 |
| `CC(C)N1CCC(c2n[nH]cc2-c2ccnc(N)c2)C1` (stereo not drawn) | 0.425 | -6.071 |
| `O=C(Cc1ccncc1)N(CCO)CCSc1ccc(Cl)cc1` | 12.99 | 14.71 |
| `Cc1ccc(OCCCC(=O)Nc2nonc2C)cc1C` | 13.8 | 0.9546 |
| `CCOc1ccc(Oc2cc(CN)ccn2)cc1` | 8.733 | 4.484 |
| `CCOCC1CN(S(C)(=O)=O)Cc2ncn(CC3CC3)c21` (stereo not drawn) | -15.99 | -9.365 |
| `CC(C)CCN(C(=O)CCn1cc(S(N)(=O)=O)cn1)C1CC1` | -1.258 | -30.3 |
| `CN(C1CCCCC1)S(=O)(=O)NC1CCN(c2ncccn2)CC1` | 8.367 | -13.63 |
| `O=C(Cc1ccc(F)cc1Cl)N1CC[C@H](CO)[C@@H](O)C1` | 13.54 | -18.33 |
| `O=C(O)C(F)(F)F.O=C(O)C(F)(F)F.[H][C@@]12COC[C@]1(COCc1ccncc1)CN(CC1CCC1)C2` | 21.64 | -30 |
| `CCC1CCc2c(c3ccccc3[nH]c2=O)O1` (stereo not drawn) | -10.37 | -5.776 |
| `NS(=O)(=O)CCNC(=O)c1cc2cccc(F)c2o1` | -20.31 | -24.87 |
| `[H][C@@]12CNCC[C@]1(O)CCN(CCOc1ccccc1CC)C2` | 5.013 | -13.06 |
| `Cc1ccc2cc(C(=O)N3CCS(=O)(=O)CC3)[nH]c2c1` | 4.769 | 0.45 |
| `CO[C@H]1CN(Cc2ccc(F)cc2)CC[C@@]12CCCO2` | -16.37 | -2.576 |
| `O=C(NCCNc1ccc(C(F)(F)F)cn1)c1ccoc1` | - | 15.7 |
| `CCN(CC)c1nc2sc(C(=O)NCC(=O)OC)cc2s1` | -3.791 | -5.501 |
| `CN(Cc1cc(Cl)ccc1Cl)Cc1ncnn1C` | - | -16.9 |
| `CCN(CC)CC[C@H]1CN(C(=O)c2ccc(F)cc2)CC[C@H]1CC(=O)O` | - | -1.921 |

The last 4 entries again:

Compound	Mtb growth Cornell	Mtb heat-shock
O=C(NCCNc1ccc(C(F)(F)F)cn1)c1ccoc1	-	15.7
CCN(CC)c1nc2sc(C(=O)NCC(=O)OC)cc2s1	-3.791	-5.501
CN(Cc1cc(Cl)ccc1Cl)Cc1ncnn1C	-	-16.9
CCN(CC)CC[C@H]1CN(C(=O)c2ccc(F)cc2)CC[C@H]1CC(=O)O	-	-1.921